This assay has as its target ba3 cytochrome c oxidase subunit I, A120F mutant (Thermus thermophilus) (UniProt Q5SJ79). Put plainly: crystal structure; three-subunit enzyme crystallised in lipidic cubic phase (monoolein), 40-45% PEG 400, 1.0-1.6 M NaCl, 100 mM sodium cacodylate pH 5.5-6.5, 20°C; refined at 1.8 Å, space group C2, one molecule per asymmetric unit; both purified.

Amino acid sequences for entries named in this document (tags omitted). A change or cut given only in a name is not applied to a line headed by its entry.
UniProt Q5SJ79: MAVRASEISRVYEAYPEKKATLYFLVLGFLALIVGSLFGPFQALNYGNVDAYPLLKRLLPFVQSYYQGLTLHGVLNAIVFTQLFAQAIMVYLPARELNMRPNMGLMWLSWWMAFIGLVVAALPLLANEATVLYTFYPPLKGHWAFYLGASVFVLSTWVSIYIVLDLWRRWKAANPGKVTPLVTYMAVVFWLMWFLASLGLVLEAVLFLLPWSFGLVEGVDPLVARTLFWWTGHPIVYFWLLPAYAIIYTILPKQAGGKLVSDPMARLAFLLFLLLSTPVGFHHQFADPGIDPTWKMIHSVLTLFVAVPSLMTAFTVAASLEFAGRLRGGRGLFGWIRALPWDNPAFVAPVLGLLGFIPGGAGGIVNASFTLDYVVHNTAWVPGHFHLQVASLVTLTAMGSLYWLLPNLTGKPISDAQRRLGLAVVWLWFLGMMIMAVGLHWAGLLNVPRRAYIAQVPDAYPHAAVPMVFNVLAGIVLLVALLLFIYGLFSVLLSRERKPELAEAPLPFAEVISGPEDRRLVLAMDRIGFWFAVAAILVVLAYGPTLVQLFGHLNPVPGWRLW
UniProt Q5SJ80: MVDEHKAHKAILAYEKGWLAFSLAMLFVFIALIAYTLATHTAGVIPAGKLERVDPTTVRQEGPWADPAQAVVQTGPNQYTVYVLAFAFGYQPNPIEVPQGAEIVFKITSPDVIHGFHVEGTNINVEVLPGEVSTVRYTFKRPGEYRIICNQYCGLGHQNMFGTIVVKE

These are yes or no findings as the source states them, for the method shown. A result given as binding can be weak or reduced; the word gives no strength.

In the case of “ba3 cytochrome c oxidase subunit II (from UniProt Q5SJ80)”, the binding result is “binds”.

The record behind these values is paper PMC3141039.
